Laboratory results reported in paper PMC10465527.
Results are given in words; binding and its absence hold for the method and conditions named. Binding seen in cells or lysates may run through a third protein. A result given as binding can be weak or reduced; the word gives no strength.

Chains of the proteins cited; added tags and fusions are not shown. Lines headed by an entry give the natural chain unless they say otherwise; changes in a name come on top.
UniProt Q15172: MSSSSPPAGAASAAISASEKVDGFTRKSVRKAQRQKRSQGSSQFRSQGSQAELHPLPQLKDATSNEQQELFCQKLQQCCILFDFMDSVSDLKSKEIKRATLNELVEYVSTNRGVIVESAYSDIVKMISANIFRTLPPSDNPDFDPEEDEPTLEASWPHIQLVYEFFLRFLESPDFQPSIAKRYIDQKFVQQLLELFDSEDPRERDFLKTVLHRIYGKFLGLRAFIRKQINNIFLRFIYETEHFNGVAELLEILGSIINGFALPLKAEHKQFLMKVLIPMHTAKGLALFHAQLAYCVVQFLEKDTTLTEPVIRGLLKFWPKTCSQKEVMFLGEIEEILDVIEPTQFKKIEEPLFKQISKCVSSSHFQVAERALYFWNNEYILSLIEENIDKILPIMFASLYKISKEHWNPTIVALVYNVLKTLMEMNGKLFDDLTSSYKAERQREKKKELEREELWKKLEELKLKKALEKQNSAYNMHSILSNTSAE
UniProt P67775: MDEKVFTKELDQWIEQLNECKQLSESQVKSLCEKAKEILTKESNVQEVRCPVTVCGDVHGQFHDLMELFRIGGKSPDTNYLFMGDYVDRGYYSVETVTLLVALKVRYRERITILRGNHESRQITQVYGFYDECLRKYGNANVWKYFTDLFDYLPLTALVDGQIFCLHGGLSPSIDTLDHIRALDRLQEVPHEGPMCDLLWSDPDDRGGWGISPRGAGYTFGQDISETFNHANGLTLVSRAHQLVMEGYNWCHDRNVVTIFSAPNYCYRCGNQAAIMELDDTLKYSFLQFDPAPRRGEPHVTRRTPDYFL

Target: B56α expressed from V245 pCEP-4HA B56α (UniProt Q15172)
Assay: co-IP; B56α antibody; lysates of HEK293-T cells co-transfected with B56α and HA-MED1 wild type or 2A mutants, 72 h post transfection; immunoblot

PP2A-C (catalytic C subunit of the AC dimer; methylation state not told) (from UniProt P67775)
binding: binds
